Reference: the supplement of paper PMC9454738
The other results are listed elsewhere or left out. This data set is noisy: repeats of one test often differ as much as different tests do.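 Triple-negative MDA-MB-231 breast cancer cells and their brain-metastatic MDA-MB-231BRM derivative each stably expressed empty vector, full-length GLI1 or truncated tGLI1. CellTiter-Blue measured viability at 48 h relative to 1% DMSO vehicle. Compounds reducing viability 20% more in tGLI1 cells than in vector and GLI1 cells counted as tGLI1-selective.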

What was measured:
Experiment in all cases: cell viability relative to vehicle (DMSO) control (fraction); higher = more viable cells (less growth inhibition)
Details in all cases: treatment time 48 h
[1] = test system: MDA-MB-231 GLI1
[2] = test system: MDA-MB-231 Vector
[3] = test system: MDA-MB-231 tGLI1
[4] = test system: MDA-MB-231BRM GLI1
[5] = test system: MDA-MB-231BRM Vector
[6] = test system: MDA-MB-231BRM tGLI1

SMILES | cell viability ([1]; 0.05 µM) | cell viability ([1]; 0.5 µM) | cell viability ([1]; 5 µM) | cell viability ([2]; 0.05 µM) | cell viability ([2]; 0.5 µM) | cell viability ([2]; 5 µM) | cell viability ([3]; 0.05 µM) | cell viability ([3]; 0.5 µM) | cell viability ([3]; 5 µM) | cell viability ([4]; 0.05 µM) | cell viability ([4]; 0.5 µM) | cell viability ([4]; 5 µM) | cell viability ([5]; 0.05 µM) | cell viability ([5]; 0.5 µM) | cell viability ([5]; 5 µM) | cell viability ([6]; 0.05 µM) | cell viability ([6]; 0.5 µM) | cell viability ([6]; 5 µM)
NC(=O)c1cn(Cc2c(F)cccc2F)nn1 [Rufinamide (Banzel)] | 1.13 | 1.08 | 1.06 | 0.952 | 1.15 | 1.19 | 1.08 | 1.11 | 1.06 | 0.987 | 0.98 | 0.972 | 1.05 | 0.928 | 0.983 | 0.939 | 1.02 | 1.04
Cc1ccc(Nc2nccc(N(C)c3ccc4c(C)n(C)nc4c3)n2)cc1S(N)(=O)=O | 1.43 | 1.87 | 1.71 | 1.48 | 1.24 | 1.14 | 1.19 | 1.52 | 1.02 | 0.899 | 0.959 | 0.972 | 0.882 | 0.929 | 0.94 | 0.919 | 0.877 | 0.959
CN(C)S(=O)(=O)c1ccc2c(c1)/C(=C/c1cc3c([nH]1)CCCC3)C(=O)N2 | 2.15 | 3 | 1.41 | 1.17 | 1.38 | 0.815 | 1.4 | 1.51 | 0.953 | 0.785 | 0.716 | 0.558 | 0.914 | 0.75 | 0.633 | 1.07 | 1.06 | 0.925
Cc1cc(CN2CCN(c3c(Br)cnc4nc(-c5ccc(N6CCN(C)CC6)cc5)[nH]c34)CC2)no1 | 1.18 | 1 | -0.0445 | 1.19 | 0.938 | 0.00941 | 1.32 | 0.887 | 0.00528 | 0.969 | 0.949 | 0.885 | 1.02 | 1.04 | 0.965 | 1.04 | 1.05 | 0.882
C=CC(=O)Nc1ccc2ncnc(Nc3cccc(Br)c3)c2c1 | 1.3 | 1.48 | 0.571 | 1.36 | 1.37 | 0.704 | 1.52 | 1.37 | 0.658 | 1.01 | 0.939 | 0.936 | 1.1 | 1.02 | 0.962 | 0.953 | 0.926 | 0.851
Oc1cc(O)cc(/C=C/c2ccc(O)c(O)c2)c1 [Piceatannol] | 1.31 | 1.67 | 1.15 | 1.21 | 1.48 | 1.19 | 1.33 | 1.4 | 1.23 | 1.02 | 0.936 | 0.763 | 1.09 | 1 | 0.812 | 1.02 | 0.972 | 0.771
CC(C)CC(=O)Nc1n[nH]c2c1CN(C(=O)C1CCN(C)CC1)C2(C)C | 0.916 | 1.28 | 0.176 | 0.86 | 0.657 | 0.245 | 0.325 | 1.19 | 0.206 | 0.536 | 1.11 | 1.09 | 1.25 | 0.999 | 0.649 | 1.1 | 0.618 | 0.889
O=C(c1ccc(F)c(F)c1Nc1ccc(I)cc1F)N1CC(O)([C@@H]2CCCCN2)C1 [Cobimetinib (GDC-0973, RG7420)] | 1.49 | 1.65 | 0.79 | 0.812 | 0.622 | 0.411 | 0.938 | 0.779 | 0.546 | 0.847 | 0.877 | 0.624 | 0.956 | 0.824 | 0.721 | 1.24 | 1.21 | 1.21
CN1CCC(CNc2ccc3ncc(-c4cccc(OC(F)(F)F)c4)n3n2)CC1 [SGI-1776 free base] | 1.41 | 0.58 | 0.39 | 1.72 | 1.15 | 0.194 | 1.27 | 0.75 | 0.345 | 1.16 | 1.06 | 0.8 | 0.672 | 1.01 | 0.926 | 0.596 | 1.02 | 0.819
CC(C)c1cnn2c(NCc3ccccc3)cc(NCCCCCCN)nc12 | 1.29 | 1.31 | 1.05 | 1.84 | 1.21 | 0.851 | 1.08 | 1.22 | 0.781 | 1.23 | 1.01 | 0.804 | 1.1 | 0.971 | 1.08 | 0.965 | 1.07 | 0.754
O=C(Nc1c[nH]nc1-c1nc2ccc(CN3CCOCC3)cc2[nH]1)NC1CC1 | 1.19 | 0.85 | 0.255 | 1.13 | 0.863 | 0.266 | 0.763 | 0.873 | 0.266 | 0.959 | 1.01 | 0.95 | 0.922 | 0.979 | 0.892 | 1.02 | 0.908 | 0.843
NC[C@@](O)(c1ccc(Cl)cc1)c1ccc(-c2cn[nH]c2)cc1 | 2.37 | 2.74 | 0.437 | 1.46 | 1.11 | 0.214 | 1.53 | 1.33 | 0.322 | 0.822 | 0.888 | 0.917 | 0.977 | 0.885 | 0.876 | 1.28 | 1.11 | 1.2
